≈ marks a conversion by molar mass, not a printed value.
Key:
Test in all cases: in vitro antibacterial activity, dilution MIC (CLSI M07-A10)
Type in all cases: cell-based
[1] = tested on: Staphylococcus aureus ATCC 29213; conditions: ATCC29213
[2] = tested on: Staphylococcus aureus ATCC BAA-1556 (MERSA resistant); conditions: ATCCBAA1556
[3] = tested on: Staphylococcus epidermidis
[4] = tested on: Bacillus subtilis MTCC 441; conditions: MTCC441
[5] = tested on: Enterococcus faecium ATCC 35667; conditions: ATCC35667
[6] = tested on: Enterococcus faecium ATCC 51559 (VRE resistant)
[7] = tested on: Escherichia coli MTCC 443; conditions: MTCC443
[8] = tested on: Pseudomonas aeruginosa MTCC 741; conditions: MTCC741

Molecule `CN[C@H](CC(C)C)C(=O)N[C@H]1C(=O)N[C@@H](CC(N)=O)C(=O)N[C@H]2C(=O)N[C@H]3C(=O)N[C@H](C(=O)N[C@H](C(=O)O)c4cc(O)cc(O)c4-c4cc3ccc4O)[C@H](O)c3ccc(c(Cl)c3)Oc3cc2cc(c3O[C@@H]2O[C@H](CO)[C@@H](O)[C@H](O)[C@H]2O[C@H]2C[C@](C)(N)[C@H](O)[C@H](C)O2)Oc2ccc(cc2Cl)[C@H]1O` [Vancomycin, reference compound] has an MIC [1] of 1 µg/mL (≈ 0.69 µM), an MIC [2] of 1 µg/mL (≈ 0.69 µM) and an MIC [3] of 1 µg/mL (≈ 0.69 µM). It also gave an MIC [4] of 0.5 µg/mL (≈ 0.345 µM), an MIC [5] of 0.5 µg/mL (≈ 0.345 µM) and an MIC [6] greater than 128 µg/mL. The MIC [7] was greater than 128 µg/mL and the MIC [8] was greater than 128 µg/mL.

Source: US11866412B1, “Acridin-9-one compounds as antibacterial agents” (KING FAISAL UNIVERSITY, priority 2023, dated 2024)
